The structures appear in SMILES notation. The list shows a part of the results. Further columns of the screen follow, without active or inactive calls. Compounds called inactive in the main read-out are mostly missing here. The note in brackets gives the kind of curve behind each potency; many fits are weak.

The term AC50 denotes the concentration giving half of the maximal activity seen.

A short description of the assay: qHTS Assay to Find Inhibitors of Chronic Active B-Cell Receptor Signaling. As to conditions: ABC-DLBCL IkBa-CBG/CBR reporter, luminescence ratio (green luciferase fused to IkBa over red control in TMD8 lymphoma cells), 4 h. The gist of the method:
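Concentration-response series (up to 46 uM) were applied to TMD8 dual-reporter cells for 4 h at 37C with doxycycline. Green/red ratio, after filter-overlap correction, defined %Activity; red signal alone was normalised to basal cells and zero luminescence.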

The mark [1] stands for this setting: measured here: CBR red luminescence, cell number.
The mark [2] stands for this setting: measured here: IkBa-CBG green luminescence.

In the case of `COc1ccc(CNC(=O)c2coc(=O)c3ccccc23)cc1`, under setting [1], the AC50 was 14.1 µM [rising, partial curve, poor fit].
Still for that read-out and setting: in the case of `CN=C(N)NCCC[C@H](N)C(=O)O` it was 0.0651 µM [falling, full curve, poor fit].
As for `Cc1cccc(/C=N/NC(=O)c2ccccc2OCc2cccc(Br)c2)n1`, the AC50 under setting [1] was 11.2 µM [falling, partial curve, poor fit].
The same measure, in the same setting: with `CC(NC(=O)c1ccco1)C(=O)OCC(=O)N1CCCCCC1` (centres undefined) the figure was 6.51 µM [rising, partial curve, poor fit].
On the same count and under the same terms, in the case of `Cc1ccc2nc(N(CCCN(C)C)C(=O)c3ccc(Br)s3)sc2c1` it was 0.708 µM [falling, full curve, poor fit]; in that of `CCc1ccc(-c2cn3nc(-c4ccccc4)cnc3n2)cc1`, 35.5 µM [falling, single point].
As to `COc1ccc(Cc2nnc(NC(=O)c3ccc(OC)cc3OC)s2)cc1`, the AC50 is 12.6 µM [rising, single point] under setting [1] and 14.1 µM [falling, partial curve, poor fit] under setting [2].
`O=[N+]([O-])c1ccc(-c2n(-c3ccccn3)c3ccccc3[n+]2-c2ccccn2)cc1`: the AC50 under setting [1] was 6.31 µM [rising, single point].
Same read-out and setting: with `O=c1[nH]c(N/N=C/c2ccc(O)cc2)nc2ccccc12` the figure was 16.4 µM [falling, partial curve]; with `Cc1ccc(Nc2nc(N)c([N+](=O)[O-])c(N3CCC(C)CC3)n2)cc1C`, 6.51 µM [rising, single point].
On to `O=C(O)/C=C/c1ccc2ccccc2n1`, for which the AC50 under setting [1] was 25.9 µM [falling, partial curve].
Consider `COc1ccccc1NC(=O)Nc1nc(CC(=O)Nc2cccc(F)c2)cs1`, for which the AC50 by setting is: under setting [1], 11.6 µM [falling, partial curve, poor fit]; under setting [2], 13 µM [rising, partial curve, poor fit].
Regarding `O=C1NC(Cc2c[nH]c3ccccc23)C(=O)N1Cc1ccc(CN2C(=O)NC(Cc3c[nH]c4ccccc34)C2=O)cc1` (centres undefined), the AC50 under setting [1] is 35.5 µM [falling, single point].
`CCOC(=O)N1CCC(NC(=O)c2cc(C(=O)Nc3cccc(OC)c3)ccc2CO)CC1`: the AC50 under setting [1] is 9.2 µM [rising, partial curve, poor fit].
Still for that read-out and setting: in the case of `C[C@@]12C(=O)Nc3cc(F)c(F)cc3C(=O)N1[C@H]1c3cc(Cl)ccc3OC[C@@H]1[C@@H]2c1ccccc1` it was 4.61 µM [falling, full curve]; in that of `C[C@@H]1CN([C@H](C)CO)C(=O)c2cccc(NC(=O)Nc3ccc(F)cc3)c2O[C@H]1CN(C)C(=O)Nc1ccc(C(F)(F)F)cc1`, 29.1 µM [falling, single point].
The same measure, in the same setting: with `CCOc1ccc2oc(C(=O)NC(C)(C)CC)c(C)c2c1` the figure was 11.2 µM [rising, partial curve, poor fit]; with `O=C(c1cc(-c2cccs2)on1)N1CCCCC1`, 0.631 µM [rising, partial curve, poor fit]; with `COc1ccc(-c2cc(C(=O)Nc3ccccc3)on2)cc1`, 5.62 µM [falling, partial curve].
In the case of `O=C(Nc1ccc(C2SCCS2)cc1)c1ccccc1`, under setting [1], the AC50 is 7.94 µM [falling, partial curve, poor fit].
The same measure, in the same setting: in the case of `COc1ccccc1CN(C)C(=O)C(NC(=O)Cc1cccc2ccccc12)C(C)C` (centres undefined) it was 2.82 µM [falling, full curve].
The same measure, in the same setting: in the case of `O=C(c1ccc(S(=O)(=O)Nc2ccccc2)cc1)N1CCCCCCC1` it was 31.6 µM [rising, partial curve, poor fit]; in that of `COC(=O)c1sccc1NC(=S)N1CCCCC1C` (centres undefined), 3.26 µM [rising, partial curve, poor fit]; in that of `COc1ccc(OC)c(NC(=O)N[C@H](Cc2ccccc2)C(=O)NN)c1`, 3.55 µM [falling, single point].
With `C=CCC[C@@H](Cc1ccc(F)cc1)C(=O)OC[C@@H](C)NC(=O)[C@@H](CC=C)CC(=O)N[C@H](CO)Cc1ccccc1`, the AC50 under setting [1] was 20.6 µM [falling, partial curve, poor fit].
Still for that read-out and setting: in the case of `NC(=O)COC(=O)c1ccc2noc(-c3ccccc3)c2c1` it was 22.4 µM [falling, single point].
On the same count and under the same terms, with `N#CCCN1CCCc2cc(N=Nc3ccc(C(F)(F)F)cc3)ccc21` the figure was 11.2 µM [rising, partial curve, poor fit]; with `CC1CCN(C2=NC(=O)/C(=C/c3ccccc3F)S2)CC1`, 20 µM [falling, partial curve, poor fit].
Turning to `Cc1noc(C)c1COc1cccc(C(=O)NC(C)(C)C)c1`, the AC50 under setting [1] was 22.4 µM [rising, single point].
Still for that read-out and setting: in the case of `N#C/C(=C(/O)CSc1ccccc1C(=O)O)c1nc2ccccc2s1` it was 4.11 µM [rising, partial curve, poor fit]; in that of `Cc1cccc2c1OCC/C2=N\NC(=O)COc1ccccc1Cl`, 0.282 µM [rising, full curve, poor fit]; in that of `S=c1[nH]nc(C2CCCCC2)n1/N=C/C=C/c1ccccc1`, 11.2 µM [rising, partial curve].
Same read-out and setting: with `Cc1ccc2cc(CCNC(=O)c3cccs3)c(=O)[nH]c2c1C` the figure was 2.31 µM [rising, full curve, poor fit]; with `O=C(CCN1CCc2ccccc2C(c2ccccc2)C1)c1ccc2c(c1)OCCO2` (centres undefined), 29.1 µM [falling, single point]; with `CCn1nc(C)c(/C=N/NC(=O)c2c[nH]c3ccccc23)c1C`, 29.1 µM [falling, single point].
Regarding `CCOc1ccccc1NC(=O)CN1CCC(NC(=O)Nc2ccccc2)CC1`, under setting [1], the AC50 was 2 µM [falling, partial curve, poor fit].
With `CCN1CCN(c2nc(N(C)c3ccccc3)nc(N)c2[N+](=O)[O-])CC1`, the concentration at half-maximal activity (AC50) under setting [1] was 0.708 µM [rising, full curve, poor fit].
Still for that read-out and setting: with `C=C1CSc2nc(=O)c3c(C)c(C)sc3n21` the figure was 6.51 µM [rising, single point].
In the case of `CCOc1ccccc1NC(=O)C1CCN(C(=O)Cc2ccccc2)CC1`, the concentration at half-maximal activity (AC50) under setting [1] is 8.91 µM [rising, partial curve, poor fit].
On the same count and under the same terms, with `CCOC(=O)CSC1=NC(=O)/C(=C/c2ccc(Br)cc2)S1` the figure was 35.5 µM [falling, single point]; with `CCCNc1c(NS(=O)(=O)c2c(F)c(F)c(F)c(F)c2F)c(=O)oc2ccccc12`, 3.55 µM [falling, partial curve, poor fit]; with `Cc1ccc(/C(N)=N/OC(=O)CSc2ccccc2)cc1`, 14.1 µM [falling, single point].
Still for that read-out and setting: with `CC(C)C(=O)N1c2ccccc2NC2=C(C(=O)CCC2)C1c1ccc(N(C)C)cc1` (centres undefined) the figure was 31.6 µM [rising, single point]; with `Cc1ccccc1C(=O)N/N=C/c1cccc2ccccc12`, 7.94 µM [falling, partial curve, poor fit].
Take `CC(C)Cn1c([N+](=O)[O-])nc2c1c(=O)[nH]c(=O)n2C`: the AC50 under setting [1] is 3.16 µM [falling, partial curve, poor fit].
The same measure, in the same setting: in the case of `CCN(Cc1ccccc1)S(=O)(=O)c1ccc(C(=O)N(CCCN(C)C)c2nc3cc4c(cc3s2)OCO4)cc1` it was 35.5 µM [falling, single point]; in that of `CCc1ccc2c(c1)c1nc(C)sc1n2CC`, 8.91 µM [rising, partial curve, poor fit]; in that of `CC1CC(C)CN(C(=O)CNC(=O)c2ccc3ccccc3c2)C1` (centres undefined), 2.82 µM [rising, full curve].
For `O=C(NCc1ccccc1Cl)C(=O)NCC1OCCN1S(=O)(=O)c1ccc(F)cc1` (centres undefined), the AC50 under setting [1] was 4.47 µM [falling, partial curve, poor fit].
For the molecule `COc1ccc(CNc2nc(NCc3ccc(OC)cc3)n(C(=O)c3ccccc3[N+](=O)[O-])n2)cc1`, the AC50 under setting [1] is 31.6 µM [rising, single point].
Regarding `COc1cccc(/C=N/NC(=S)NCc2ccco2)c1OC`, the half-maximal activity concentration (AC50) under setting [1] is 12.6 µM [falling, partial curve, poor fit].
Regarding `COC(=O)c1ccc(COC(=O)c2c(C)nn(Cc3ccccc3Cl)c2Cl)o1`, the AC50 under setting [1] was 29.1 µM [falling, single point].
For the molecule `CCC(CO)Oc1cc(NC(=O)Cc2ccccc2)c2ncn(C(C)C)c2c1` (centres undefined), the AC50 under setting [1] is 6.51 µM [rising, single point].
As to `Cc1cccnc1NC(=O)c1ccc(NS(=O)(=O)/C=C/c2ccccc2)cc1`, the AC50 under setting [1] was 29.1 µM [falling, single point].
Regarding `Nc1ncnc2c1ncn2[C@@H]1O[C@H](COP(=O)(O)O)[C@@H](O)[C@H]1O`, the AC50 is, setting by setting: under setting [1], 14.1 µM [rising, partial curve]; under setting [2], 20 µM [falling, partial curve].
Regarding `C=CCn1c(SCc2nnc(-c3ccccc3)o2)nnc1C(O)c1ccccc1` (centres undefined), under setting [1], the AC50 was 11.6 µM [rising, partial curve, poor fit].
The same measure, in the same setting: with `Cc1ccc(NC(=O)CCN2C(=O)c3ccccc3C2=O)cc1C` the figure was 2.51 µM [rising, partial curve, poor fit]; with `CN(C)CCN(C(=O)c1ccc(S(=O)(=O)N(C)C)cc1)c1nc2cc3c(cc2s1)OCCO3`, 15.8 µM [falling, single point]; with `Cc1ccc(C(=O)Nc2nnc(S(=O)(=O)Nc3ccccc3C)s2)cc1C`, 11.2 µM [falling, single point].
Still for that read-out and setting: in the case of `O=C(NNC(=O)c1cccc(-n2cnnn2)c1)c1ccccc1` it was 25.1 µM [falling, single point]; in that of `COc1ccccc1-c1coc2cc(O)cc(O)c2c1=O`, 0.82 µM [rising, full curve, poor fit].

Values taken from PubChem BioAssay AID493014 (National Center for Advancing Translational Sciences (NCATS), 2011).
